No constants are given. Whether binding was seen depends on the method and setting. Some entries that bind do so weakly or less than the wild type.

In this assay the target is T1, N-terminally biotinylated O-Q11.
T1 sequence (peptide, single biotin tag at the N-terminus, directly adjacent to the OVA sequence): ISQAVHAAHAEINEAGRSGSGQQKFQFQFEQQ
Put plainly: TEM, 5 nm streptavidin-gold staining of fibrils.

On to “5 nm colloidal gold conjugated to streptavidin (Sigma) (from UniProt P22629 37-163)”, for which the binding result was “binds”.
